# Some of the results follow. Shown are side measurements of this screen, not its main read-out; they come without a call. Most of these compounds were active or inconclusive in the main read-out, so they are no random draw. The note in brackets gives the kind of curve behind each potency; many fits are weak.
# Assay: qHTS Assay to Find Inhibitors of Chronic Active B-Cell Receptor Signaling
# Details: ABC-DLBCL IkBa-CBG/CBR reporter, luminescence ratio (green luciferase fused to IkBa over red control in TMD8 lymphoma cells), 4 h
# Summary of the method: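 Concentration-response series (up to 46 uM) were applied to TMD8 dual-reporter cells for 4 h at 37C with doxycycline. Green/red ratio, after filter-overlap correction, defined %Activity; red signal alone was normalised to basal cells and zero luminescence.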
# [1] = measured here: CBR red luminescence, cell number
# [2] = measured here: IkBa-CBG green luminescence
Structure (SMILES),AC50 [1],AC50 [2]
Cc1ccc(CNC(=O)CCc2nc(-c3cccs3)no2)cc1,"6.51 µM [rising, single point]",
O=C(CN1CCN(C(=O)c2ccco2)CC1)Nc1ccc(Br)cc1,"1 µM [rising, full curve, poor fit]",
NC1=NC(=Nc2ccc(Cl)cc2)c2ccccc21,"14.6 µM [falling, partial curve]",
COc1cccc(CNCc2cc(OC)cc(OC)c2)c1,"15.8 µM [falling, single point]",
CCOC(=O)Nc1ccc2c(c1)N(C(=O)N1CCN(C)CC1)c1ccccc1S2,"20.6 µM [falling, partial curve]",
COc1ccc(CN(C)C(=O)COC(=O)c2ccc3c(c2)OCO3)cc1OC,"6.51 µM [rising, single point]",
O=[N+]([O-])c1cc([N+](=O)[O-])c(N2CCCCCC2)cc1NCCO,"31.6 µM [rising, single point]",
COc1ccccc1NC(=S)Nc1ccc2cn[nH]c2c1,"11.2 µM [falling, partial curve, poor fit]",
CCOc1ccc2oc(C(=O)OCC(=O)N3CC(C)OC(C)C3)c(C)c2c1 (stereo not drawn),"0.164 µM [falling, full curve, poor fit]",
Nc1ncc(-n2cncn2)c(-c2ccccc2)n1,"4.47 µM [falling, partial curve, poor fit]",
N#CCSc1nc2ccccc2c(=O)n1CCCC(=O)NCc1ccco1,"0.631 µM [falling, partial curve, poor fit]","0.794 µM [rising, full curve, poor fit]"
COc1cccc(NC(=O)c2ccc(NCCCN3CCC(C)CC3)c([N+](=O)[O-])c2)c1,"11.2 µM [falling, partial curve]",
COc1cccc2sc3ccc(NCc4ccc5c(c4)OCO5)cc3c(=O)c12,"35.5 µM [falling, single point]",
CCCc1cc(C(=O)Nc2ccc(C)cc2)no1,"35.5 µM [falling, single point]",
CCN(CC)c1ccc2cc(C(N)=O)/c(=N\NC(=O)c3ccncc3)oc2c1,"20 µM [rising, single point]",
c1ccc2c(Nc3ccc(N4CCOCC4)cc3)nc(N3CCOCC3)nc2c1,"35.5 µM [falling, single point]",
O=C(Nc1ccccn1)C1CCN(S(=O)(=O)c2ccccc2)CC1,"1.16 µM [rising, partial curve]",
Cc1ccn2cc(-c3ccc(S(=O)(=O)N4CCOCC4)cc3)nc2c1,"3.98 µM [rising, full curve]",
COc1ccccc1NC(=O)C1C2CCCCC21 (stereo not drawn),"7.94 µM [rising, partial curve, poor fit]",
CCCCn1c(N)c(N(CCOC)C(=O)CCS(=O)(=O)c2ccc(Cl)cc2)c(=O)[nH]c1=O,"3.26 µM [falling, partial curve, poor fit]",
CC1CC(C)CN(C(=O)/C=C/c2ccc([N+](=O)[O-])s2)C1 (stereo not drawn),"3.16 µM [rising, partial curve]",

Structure (SMILES),AC50 [1],AC50 [2]
O=C(Oc1ccc(/C=N/NC(=O)c2ccccc2F)cc1)c1ccccc1,"0.282 µM [falling, full curve, poor fit]",
CCOC(=O)c1ccc(NC(=O)CCc2nc(-c3ccc(C)cc3)no2)cc1,"29.1 µM [rising, partial curve, poor fit]",
CC(/C=C1\SC(=S)N(CCCC(=O)Nc2ccc(C(=O)O)c(O)c2)C1=O)=C\c1ccccc1,"7.31 µM [falling, partial curve]",
O=C(NC1CCCC1)C(c1ccc(F)cc1)N(Cc1ccccc1Cl)C(=O)CCl (stereo not drawn),"23.1 µM [falling, single point]",
COc1ccccc1CNC(=O)Cc1c[nH]c2ccccc12,"11.2 µM [falling, partial curve]",
COc1ccc(/C(N)=N/OC(=O)c2ccc([N+](=O)[O-])c(C)c2)cc1OC,"0.1 µM [rising, full curve, poor fit]",
Cc1cc(-c2ccccc2)nc(SCc2ccc(C(=O)O)cc2)n1,"11.2 µM [falling, partial curve]",
CSC(=NCCCN1CCOCC1)NS(=O)(=O)c1cccs1,"35.5 µM [falling, single point]",
Cn1c(C(O)c2ccc3c(c2)OCO3)nc2ccccc21 (stereo not drawn),"6.51 µM [rising, single point]",
CC1(C)c2[nH]c3ccccc3c2C[C@H]2C(=O)N(CCCCCO)CC(=O)N21,"0.562 µM [rising, full curve, poor fit]",
CCSC1=N/C(=C\c2ccc(C)s2)C(=O)S1,"14.6 µM [rising, partial curve]",
COc1ccc(C2N(C(=O)N(C)C)CCN2S(=O)(=O)c2ccc(OC)cc2)cc1 (stereo not drawn),"6.31 µM [falling, single point]",
Cc1cc(=O)[nH]c(SCC(=O)Nc2nnc(SCc3ccccc3)s2)n1,"25.1 µM [falling, single point]","14.1 µM [rising, partial curve, poor fit]"
CCOC(=O)NC(c1cccc(Cl)c1)C1CCCCCC1=O (stereo not drawn),"23.1 µM [falling, single point]",
Cc1cc(=O)[nH]c(SCC(=O)Nc2ccc3c(c2)OCCO3)n1,"6.31 µM [falling, single point]",
COc1ccc(/C=C2/Sc3ccc(C(=O)NCCCN4CCOCC4)cc3NC2=O)cc1OC,"17.8 µM [rising, partial curve, poor fit]",
O=C(COc1ccc(Br)cc1Cl)NC(=S)Nc1ccccn1,"3.98 µM [rising, partial curve, poor fit]",
CC1=Nc2nc(N3CCCCC3)c(C#N)c3c4c(nc(c23)N1)N(c1ccc(C(C)C)cc1)C(=O)C4,"11.6 µM [falling, single point]",
COc1ccc(CCCC(=O)NCc2ccccc2)cc1C,"10.3 µM [rising, partial curve, poor fit]",
Cc1cccc(C)c1OCC(=O)NNC(=O)CNC(=O)c1ccc(OC(F)F)cc1,"0.411 µM [rising, full curve, poor fit]",

# 3 entries from above, bar-delimited:
Structure (SMILES) | AC50 [1] | AC50 [2]
Cc1cc(=O)[nH]c(SCC(=O)Nc2ccc3c(c2)OCCO3)n1 | 6.31 µM [falling, single point] | 
COc1ccc(/C=C2/Sc3ccc(C(=O)NCCCN4CCOCC4)cc3NC2=O)cc1OC | 17.8 µM [rising, partial curve, poor fit] | 
O=C(COc1ccc(Br)cc1Cl)NC(=S)Nc1ccccn1 | 3.98 µM [rising, partial curve, poor fit] | 

# Source: PubChem BioAssay AID493014 (National Center for Advancing Translational Sciences (NCATS), 2011)
